{
  "source": "paper PMC12400318",
  "about": "(Biochemical Journal, 2025)",
  "binders": {"B1": {"name": "Thermosipho melanesiensis CtfB (beta subunit of acetoacetyl-CoA:acetate CoA transferase CtfAB), wild type, untagged (enzyme, UniProt A6LM39 1-214)", "chain": "MNPKEKIAIRVAQELKKGQLVNLGIGLPTLVANYIPKDIHVFFQSENGIIGMGPAPKEGYENSDLTNAGASYITALPGAMTFDSAFSFGIIRGGHLDVTVLGGLQVDEEGHLANWMIPGKMIPGMGGAMDLVTGAKKVIVAMTHTAKGTPKIVKKCTLPLTSIRKVDLIVTELAVIEPTDEGLLLKEISKETTLDEVLKLTEAKLIIADDLKIF"}, "B2": {"name": "Thermosipho melanesiensis CtfB (beta subunit) E46D mutant, untagged (enzyme, UniProt A6LM39 1-214)", "chain": "B1 chain with E46D"}, "B3": {"name": "Thermosipho melanesiensis CtfB (beta subunit) E46S mutant, untagged (enzyme, UniProt A6LM39 1-214)", "chain": "B1 chain with E46S"}, "B4": {"name": "Thermosipho melanesiensis CtfB (beta subunit) F42T/S45C mutant, untagged (enzyme, UniProt A6LM39 1-214)", "chain": "B1 chain with F42T, S45C"}},
  "key": {"[1]": {"molecular_target": "T1, Thermosipho melanesiensis CtfA (alpha subunit of acetoacetyl-CoA:acetate CoA transferase CtfAB), N-terminal 6x histidine tag (Thermosipho melanesiensis) (UniProt A6LM40)", "T1 sequence": "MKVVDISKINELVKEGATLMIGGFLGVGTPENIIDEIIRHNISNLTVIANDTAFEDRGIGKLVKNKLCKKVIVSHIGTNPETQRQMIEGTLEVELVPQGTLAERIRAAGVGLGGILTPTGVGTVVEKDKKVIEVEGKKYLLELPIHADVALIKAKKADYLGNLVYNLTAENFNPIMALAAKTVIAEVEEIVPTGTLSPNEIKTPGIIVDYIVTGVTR", "test": "SEC; subunits co-expressed in E. coli; after heat treatment and nickel affinity by the His6 tag on CtfA, HiLoad Superdex 26/600 200 pg in 300 mM NaCl, 50 mM NaH2PO4, 100 mM Na2SO4, 20% glycerol, pH 8.0; fractions analysed by SDS-PAGE; both purified"}, "[2]": {"molecular_target": "T1, Thermosipho melanesiensis CtfA (alpha subunit of acetoacetyl-CoA:acetate CoA transferase CtfAB), N-terminal 6x histidine tag (Thermosipho melanesiensis)", "test": "crystal structure; hanging drop, purified co-expressed CtfAB 5-6 mg/mL in 10 mM MOPS, 5% glycerol, 50 mM Na2SO4, 50 mM NaCl, 1 mM DTT, pH 7.5; reservoir 100 mM Na acetate pH 4.9-5.5, 6-10% PEG 3350; F42T/S45C co-crystal with 5-10 mM acetyl-CoA; space group P4(1)2(1)2; both purified"}},
  "note": "Positions count from the first letter of the chain named. Names may count otherwise. Results are given in words; binding and its absence hold for the method and conditions named. Some binding calls cover weakened binding; strength is not graded here. Tags and fused reporters may be left off the sequences shown.",
  "data": [
    {"binder": "B1", "values": [
      {"measurement": "binding", "setting": "[1]", "result": "binds"},
      {"measurement": "binding", "setting": "[2]", "result": "binds"}
    ]},
    {"binder": "B2", "values": [
      {"measurement": "binding", "setting": "[2]", "result": "binds"}
    ]},
    {"binder": "B3", "values": [
      {"measurement": "binding", "setting": "[2]", "result": "binds"}
    ]},
    {"binder": "B4", "values": [
      {"measurement": "binding", "setting": "[2]", "result": "binds"}
    ]}
  ]
}
